# The supplement of paper PMC7666118
# Chains of the proteins cited; added tags and fusions are not shown. Lines headed by an entry give the natural chain unless they say otherwise; changes in a name come on top.
# UniProt Q6ICL3: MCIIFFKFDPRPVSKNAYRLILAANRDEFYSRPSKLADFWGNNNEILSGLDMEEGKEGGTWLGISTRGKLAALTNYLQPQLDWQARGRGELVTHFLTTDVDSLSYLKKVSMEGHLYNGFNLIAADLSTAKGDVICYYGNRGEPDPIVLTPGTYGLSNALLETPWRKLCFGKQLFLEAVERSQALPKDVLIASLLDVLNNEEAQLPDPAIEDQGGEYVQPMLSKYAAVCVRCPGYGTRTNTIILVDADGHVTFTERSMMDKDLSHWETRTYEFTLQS
# UniProt Q96BS2: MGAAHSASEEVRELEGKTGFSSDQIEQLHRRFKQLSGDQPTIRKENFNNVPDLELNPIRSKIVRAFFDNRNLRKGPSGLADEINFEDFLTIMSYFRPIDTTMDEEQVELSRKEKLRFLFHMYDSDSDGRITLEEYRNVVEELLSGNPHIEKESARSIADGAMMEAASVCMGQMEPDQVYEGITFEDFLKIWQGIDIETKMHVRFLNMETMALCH
# UniProt Q9NUP7: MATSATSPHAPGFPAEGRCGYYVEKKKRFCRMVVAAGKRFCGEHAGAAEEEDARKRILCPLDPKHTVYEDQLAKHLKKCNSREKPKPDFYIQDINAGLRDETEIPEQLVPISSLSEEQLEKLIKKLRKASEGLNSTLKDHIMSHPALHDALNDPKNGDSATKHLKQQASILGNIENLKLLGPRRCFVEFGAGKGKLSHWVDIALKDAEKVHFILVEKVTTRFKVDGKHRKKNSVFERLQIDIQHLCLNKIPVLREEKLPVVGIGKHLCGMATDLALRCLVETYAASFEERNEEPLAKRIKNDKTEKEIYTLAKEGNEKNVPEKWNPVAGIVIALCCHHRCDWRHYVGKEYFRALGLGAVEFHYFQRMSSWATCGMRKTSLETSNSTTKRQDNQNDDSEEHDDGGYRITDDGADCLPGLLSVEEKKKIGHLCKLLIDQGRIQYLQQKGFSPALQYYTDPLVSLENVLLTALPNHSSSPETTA
# UniProt P62328: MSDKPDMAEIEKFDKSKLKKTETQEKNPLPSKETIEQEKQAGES
# UniProt Q16881, whole entry: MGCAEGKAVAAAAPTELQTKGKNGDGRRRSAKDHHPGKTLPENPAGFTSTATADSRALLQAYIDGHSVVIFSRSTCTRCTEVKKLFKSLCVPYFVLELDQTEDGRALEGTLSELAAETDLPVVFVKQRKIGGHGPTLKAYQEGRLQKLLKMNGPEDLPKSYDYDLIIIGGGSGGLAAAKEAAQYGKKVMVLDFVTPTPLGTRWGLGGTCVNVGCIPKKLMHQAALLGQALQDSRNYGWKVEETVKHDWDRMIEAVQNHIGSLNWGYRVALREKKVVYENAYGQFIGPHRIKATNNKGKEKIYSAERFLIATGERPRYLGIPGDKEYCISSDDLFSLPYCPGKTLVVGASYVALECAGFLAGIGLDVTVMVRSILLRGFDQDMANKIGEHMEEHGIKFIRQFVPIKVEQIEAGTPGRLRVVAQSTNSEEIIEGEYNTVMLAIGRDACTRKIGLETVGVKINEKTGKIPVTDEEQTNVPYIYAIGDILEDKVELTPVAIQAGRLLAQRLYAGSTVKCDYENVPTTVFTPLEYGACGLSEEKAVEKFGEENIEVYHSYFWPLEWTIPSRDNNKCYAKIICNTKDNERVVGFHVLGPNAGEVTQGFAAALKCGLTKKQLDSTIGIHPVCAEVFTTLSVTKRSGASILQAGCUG
# UniProt Q9H3S4: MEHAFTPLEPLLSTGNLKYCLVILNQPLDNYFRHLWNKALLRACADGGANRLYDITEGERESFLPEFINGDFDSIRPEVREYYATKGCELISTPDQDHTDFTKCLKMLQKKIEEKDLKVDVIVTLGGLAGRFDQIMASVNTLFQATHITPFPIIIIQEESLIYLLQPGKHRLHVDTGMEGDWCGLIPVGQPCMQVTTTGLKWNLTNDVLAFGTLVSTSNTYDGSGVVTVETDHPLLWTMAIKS
# UniProt Q3LXA3: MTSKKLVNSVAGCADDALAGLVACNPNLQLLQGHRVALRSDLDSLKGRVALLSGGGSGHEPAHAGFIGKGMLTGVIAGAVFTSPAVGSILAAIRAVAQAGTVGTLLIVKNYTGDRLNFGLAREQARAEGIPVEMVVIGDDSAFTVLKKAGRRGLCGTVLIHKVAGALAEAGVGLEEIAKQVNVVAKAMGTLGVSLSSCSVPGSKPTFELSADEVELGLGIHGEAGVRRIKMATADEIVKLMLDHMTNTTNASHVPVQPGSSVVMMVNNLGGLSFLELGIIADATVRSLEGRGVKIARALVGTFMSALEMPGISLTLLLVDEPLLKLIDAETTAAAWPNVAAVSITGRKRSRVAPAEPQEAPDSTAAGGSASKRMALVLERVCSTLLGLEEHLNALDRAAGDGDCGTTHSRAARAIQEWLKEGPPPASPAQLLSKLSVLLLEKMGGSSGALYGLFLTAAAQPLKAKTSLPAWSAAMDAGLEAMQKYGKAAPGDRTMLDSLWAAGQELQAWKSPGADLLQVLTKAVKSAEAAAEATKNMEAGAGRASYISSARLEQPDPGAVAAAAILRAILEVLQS
# UniProt Q6PJ69: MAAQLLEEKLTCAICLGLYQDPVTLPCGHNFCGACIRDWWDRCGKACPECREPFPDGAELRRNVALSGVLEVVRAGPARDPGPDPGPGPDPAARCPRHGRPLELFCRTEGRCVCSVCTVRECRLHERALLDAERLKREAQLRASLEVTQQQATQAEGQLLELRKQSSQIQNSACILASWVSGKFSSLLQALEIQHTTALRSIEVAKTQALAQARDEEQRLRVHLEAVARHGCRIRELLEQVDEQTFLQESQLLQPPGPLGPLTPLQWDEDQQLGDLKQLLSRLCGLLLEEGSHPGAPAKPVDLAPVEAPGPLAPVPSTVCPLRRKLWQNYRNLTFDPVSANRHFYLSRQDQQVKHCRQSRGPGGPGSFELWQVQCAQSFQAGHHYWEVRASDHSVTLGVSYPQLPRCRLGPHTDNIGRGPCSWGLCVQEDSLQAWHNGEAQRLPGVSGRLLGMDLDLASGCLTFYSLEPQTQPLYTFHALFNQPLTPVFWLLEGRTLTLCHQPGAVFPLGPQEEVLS
# UniProt Q13263: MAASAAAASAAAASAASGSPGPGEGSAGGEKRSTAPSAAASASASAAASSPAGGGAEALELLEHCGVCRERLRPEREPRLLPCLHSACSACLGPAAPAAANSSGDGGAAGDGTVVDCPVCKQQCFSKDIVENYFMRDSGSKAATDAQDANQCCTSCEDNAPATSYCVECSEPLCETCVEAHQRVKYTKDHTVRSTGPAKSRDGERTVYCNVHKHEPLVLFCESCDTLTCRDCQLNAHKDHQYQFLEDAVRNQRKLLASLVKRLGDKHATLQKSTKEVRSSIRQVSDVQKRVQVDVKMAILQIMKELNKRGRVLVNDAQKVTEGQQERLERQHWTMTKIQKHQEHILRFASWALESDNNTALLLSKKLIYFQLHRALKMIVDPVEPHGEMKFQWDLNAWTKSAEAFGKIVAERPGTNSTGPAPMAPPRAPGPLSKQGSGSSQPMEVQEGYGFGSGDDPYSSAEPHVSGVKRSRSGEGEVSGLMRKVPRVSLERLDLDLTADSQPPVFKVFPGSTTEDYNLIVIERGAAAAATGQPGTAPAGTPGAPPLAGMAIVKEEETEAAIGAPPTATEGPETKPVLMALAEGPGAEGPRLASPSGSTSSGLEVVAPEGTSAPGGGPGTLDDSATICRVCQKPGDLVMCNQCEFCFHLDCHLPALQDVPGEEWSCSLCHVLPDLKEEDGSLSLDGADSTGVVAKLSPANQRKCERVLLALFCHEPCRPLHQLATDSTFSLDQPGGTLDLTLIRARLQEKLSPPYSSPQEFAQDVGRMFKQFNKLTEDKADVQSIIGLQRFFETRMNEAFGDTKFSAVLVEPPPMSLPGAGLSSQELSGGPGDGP
# UniProt O43422: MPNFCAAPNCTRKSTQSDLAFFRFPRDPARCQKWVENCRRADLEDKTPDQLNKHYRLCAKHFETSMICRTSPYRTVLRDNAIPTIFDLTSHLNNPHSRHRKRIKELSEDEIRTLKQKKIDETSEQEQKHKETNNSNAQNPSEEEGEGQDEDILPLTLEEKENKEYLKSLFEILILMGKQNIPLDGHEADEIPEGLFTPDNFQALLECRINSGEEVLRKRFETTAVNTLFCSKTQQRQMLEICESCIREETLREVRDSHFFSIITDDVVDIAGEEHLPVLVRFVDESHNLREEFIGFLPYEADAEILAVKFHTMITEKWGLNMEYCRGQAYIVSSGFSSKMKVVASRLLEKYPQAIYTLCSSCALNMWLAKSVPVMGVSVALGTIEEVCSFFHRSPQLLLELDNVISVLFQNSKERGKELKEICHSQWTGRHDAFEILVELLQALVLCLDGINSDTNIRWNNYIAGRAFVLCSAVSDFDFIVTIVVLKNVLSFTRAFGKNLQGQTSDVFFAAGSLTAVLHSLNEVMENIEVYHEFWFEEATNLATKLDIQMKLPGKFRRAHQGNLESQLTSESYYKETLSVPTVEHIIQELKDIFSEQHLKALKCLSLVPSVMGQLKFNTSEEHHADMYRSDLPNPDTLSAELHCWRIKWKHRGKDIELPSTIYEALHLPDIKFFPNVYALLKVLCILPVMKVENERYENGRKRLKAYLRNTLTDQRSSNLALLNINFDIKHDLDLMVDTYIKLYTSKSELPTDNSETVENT
# UniProt Q6YHU6: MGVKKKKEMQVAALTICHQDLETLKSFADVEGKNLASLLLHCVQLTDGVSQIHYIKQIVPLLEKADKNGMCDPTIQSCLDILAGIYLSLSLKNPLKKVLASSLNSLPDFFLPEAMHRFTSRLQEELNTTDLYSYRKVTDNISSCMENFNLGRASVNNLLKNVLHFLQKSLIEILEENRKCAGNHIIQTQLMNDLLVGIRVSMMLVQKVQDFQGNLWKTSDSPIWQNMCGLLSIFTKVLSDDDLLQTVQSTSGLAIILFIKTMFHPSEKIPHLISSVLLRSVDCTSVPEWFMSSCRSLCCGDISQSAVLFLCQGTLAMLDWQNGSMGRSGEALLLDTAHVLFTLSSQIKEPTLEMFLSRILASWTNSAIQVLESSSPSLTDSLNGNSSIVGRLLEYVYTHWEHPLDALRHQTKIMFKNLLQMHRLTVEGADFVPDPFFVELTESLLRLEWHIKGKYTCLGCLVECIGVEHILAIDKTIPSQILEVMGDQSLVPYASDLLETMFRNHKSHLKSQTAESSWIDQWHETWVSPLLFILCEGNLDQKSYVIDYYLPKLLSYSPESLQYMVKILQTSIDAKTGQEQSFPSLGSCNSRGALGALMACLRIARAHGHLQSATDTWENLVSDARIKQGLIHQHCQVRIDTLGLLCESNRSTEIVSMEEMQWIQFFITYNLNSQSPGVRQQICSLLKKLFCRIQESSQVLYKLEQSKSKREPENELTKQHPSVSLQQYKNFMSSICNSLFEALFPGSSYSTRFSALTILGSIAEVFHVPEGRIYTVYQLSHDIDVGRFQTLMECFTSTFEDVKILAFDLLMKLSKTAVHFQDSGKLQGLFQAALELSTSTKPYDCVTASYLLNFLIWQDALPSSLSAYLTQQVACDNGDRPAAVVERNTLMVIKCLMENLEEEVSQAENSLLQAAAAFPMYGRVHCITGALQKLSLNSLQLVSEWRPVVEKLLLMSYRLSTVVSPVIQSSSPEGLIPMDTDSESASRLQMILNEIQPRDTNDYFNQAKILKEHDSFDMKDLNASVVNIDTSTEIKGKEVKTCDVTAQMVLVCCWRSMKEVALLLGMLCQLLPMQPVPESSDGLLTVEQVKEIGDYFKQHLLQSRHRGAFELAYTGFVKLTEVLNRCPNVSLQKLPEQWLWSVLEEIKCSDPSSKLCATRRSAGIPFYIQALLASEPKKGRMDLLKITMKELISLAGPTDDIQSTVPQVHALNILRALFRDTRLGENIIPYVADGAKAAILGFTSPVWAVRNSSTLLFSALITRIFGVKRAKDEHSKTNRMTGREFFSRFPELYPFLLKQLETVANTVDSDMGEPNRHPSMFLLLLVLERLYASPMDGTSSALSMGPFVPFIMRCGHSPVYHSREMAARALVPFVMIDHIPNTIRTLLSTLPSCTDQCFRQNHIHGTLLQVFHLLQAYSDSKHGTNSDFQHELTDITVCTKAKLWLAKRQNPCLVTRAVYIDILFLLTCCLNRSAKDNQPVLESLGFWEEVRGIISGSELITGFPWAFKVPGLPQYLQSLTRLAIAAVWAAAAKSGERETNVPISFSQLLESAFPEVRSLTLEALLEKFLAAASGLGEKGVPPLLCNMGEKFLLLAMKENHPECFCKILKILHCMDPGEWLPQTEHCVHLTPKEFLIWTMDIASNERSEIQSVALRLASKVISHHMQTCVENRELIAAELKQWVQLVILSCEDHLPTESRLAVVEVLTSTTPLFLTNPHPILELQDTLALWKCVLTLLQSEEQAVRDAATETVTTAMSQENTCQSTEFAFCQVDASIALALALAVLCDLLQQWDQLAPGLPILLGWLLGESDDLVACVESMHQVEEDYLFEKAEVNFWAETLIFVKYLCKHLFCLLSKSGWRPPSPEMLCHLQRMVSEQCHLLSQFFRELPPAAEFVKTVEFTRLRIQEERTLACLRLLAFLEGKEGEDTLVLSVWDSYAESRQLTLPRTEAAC
# The list shows a part of the results.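 Rule for the calls: active = dose-dependent thermal stabilisation significant by F-test of dose-response against flat model at 10% FDR; inactive = not significant.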
# Compound: Nc1nc2c(ncn2[C@@H]2O[C@H](COP(=O)(O)OP(=O)(O)OP(=O)(O)O)[C@@H](O)[C@H]2O)c(=O)[nH]1
# Assay: dose-dependent thermal stabilisation call (2D-TPP, DLPTP, 10% FDR) (binary (1 = stabilised)); higher = stabilised by the compound
# Conditions: system: Jurkat gel-filtered lysate; concentration range 1-500 µM
row,Target,dose-dependent thermal stabilisation call
1,TBC1D10B (UniProt Q4KMP7),inactive: 0
2,TFAP4 (UniProt Q01664),inactive: 0
3,TSN (UniProt Q15631),inactive: 0
4,TANGO2 (UniProt Q6ICL3),inactive: 0
5,TSSC4 (UniProt Q9Y5U2),inactive: 0
6,TCF12 (UniProt Q99081),inactive: 0
7,TESC (UniProt Q96BS2),inactive: 0
8,TRMT13 (UniProt Q9NUP7),active: 1
9,TOE1 (UniProt Q96GM8),inactive: 0
10,TMSB4X (UniProt P62328),inactive: 0
11,TERF2IP (UniProt Q9NYB0),inactive: 0
12,TCEA1 (UniProt P23193),inactive: 0
13,TGFBRAP1 (UniProt Q8WUH2),inactive: 0
14,TATDN1 (UniProt Q6P1N9),active: 1
15,TXNRD1 (UniProt Q16881),inactive: 0
16,TPK1 (UniProt Q9H3S4),inactive: 0
17,TCF25 (UniProt Q9BQ70),inactive: 0
18,TXNDC9 (UniProt O14530),inactive: 0

# An excerpt of these results, tab-delimited:
row	Target	dose-dependent thermal stabilisation call
11	TERF2IP (UniProt Q9NYB0)	inactive: 0
12	TCEA1 (UniProt P23193)	inactive: 0
13	TGFBRAP1 (UniProt Q8WUH2)	inactive: 0

# The listing continues:

row,Target,dose-dependent thermal stabilisation call
1,TWF1 (UniProt Q12792),inactive: 0
2,TRAPPC2L (UniProt Q9UL33),inactive: 0
3,TSNAX (UniProt Q99598),inactive: 0
4,TYMS (UniProt P04818),inactive: 0
5,TAX1BP3 (UniProt O14907),inactive: 0
6,TRAPPC12 (UniProt Q8WVT3),inactive: 0
7,TRMT6 (UniProt Q9UJA5),inactive: 0
8,TBL1X (UniProt O60907),inactive: 0
9,TOPBP1 (UniProt Q92547),inactive: 0
10,TKFC (UniProt Q3LXA3),inactive: 0
11,TRIM11 (UniProt Q96F44),inactive: 0
12,TRIM65 (UniProt Q6PJ69),active: 1
13,THOC5 (UniProt Q13769),active: 1
14,TRAPPC10 (UniProt P48553),inactive: 0
15,TRIM28 (UniProt Q13263),inactive: 0
16,TRIP13 (UniProt Q15645),active: 1
17,THAP12 (UniProt O43422),inactive: 0
18,THADA (UniProt Q6YHU6),inactive: 0
